According to patent US20110289042A1, “Integrative Framework for Three-Stage Integrative Pathway Search” (BOARD OF TRUSTEES OF MICHAGN STATE UNIVERSITY, priority 2005, published 2011):
Where two headings read alike, the source gives them in different places. At least one compound was matched to its structure with a doubt left.

Key:
Format in all cases: cell-based, human
[1] = tested on: Hep G2/C3A cells
Method: Cell Culture. 1 million Hep G2/C3A cells (ATCC, Manassas, Va.) were seeded into each well of 6-well culture plate. The cells were kept in 2 mL of medium containing Dulbecco's modified Eagles medium (Invitrogen, Carlsbad, Calif.) supplemented with 10% fetal bovine serum (ATCC) and 2% Penicillin-streptomycin (Invitrogen). Cells were incubated at 37° C. and in 10% CO2 atmosphere. After cells reached confluence, the medium was replaced with 2 mL of treatment of FFA including palmitate (700 μM), oleate (700 μM), linoleate (700 μM) and TNF-α (0, 20, 100 ng/mL′)
Cytotoxicity measurement. […] Cells were washed with phosphate buffered saline (PBS) and kept in 1% Triton-X-100 in PBS for 24 h at 37° C. Cell lysate was then collected, vortexed for 15 seconds, and centrifuged at 7000 rpm for 5 minutes. Cytotoxicity detection kit (Roche Applied Science, Indianapolis, Ind.) was used to measure the LDH release. LDH released was normalized to the total LDH (released+lyzed).

[2] = tested on: stearoyl-CoA desaturase (SCD); experiment: SCD protein expression by western blot in HepG2 cells
Method: The protein expression level of SCD in HepG2 cells cultured in control (HepG2 medium), palmitate, oleate, palmitate+oleate, mediums were measured as a function of TNF-α with western blots.

[3] = tested on: Bcl-2; experiment: Bcl-2 protein expression by western blot in HepG2 cells; conditions: palmitate culture compared with control and oleate cultures

In the case of `CCOC(=O)C(C)(C)Oc1ccc(Cl)cc1` [clofibrate, reference compound], the “LDH release in palmitate culture” value ([1]; 6 hours pretreatment followed by 48 hours co-supplementation of 50 μM, palmitate culture) is reported as “significantly decrease LDH release”.

For `CCCCCCCC/C=C\CCCCCCCC(=O)O` [oleate], the “LDH release in palmitate culture” value ([1]; co-supplementation of oleate with palmitate) was “reduced LDH release” and the “SCD protein expression in palmitate culture” value ([2]; oleate 0.3 mM co-supplemented with palmitate 0.4 mM) was “prevented the downregulation of SCD”.

`CCCCCCCCCCCCCCCC(=O)O` [palmitate] was tested, and the LDH release ([1]; palmitate culture compared to oleate and control cultures) was “increased LDH release”, the SCD protein expression ([2]; palmitate 0.7 mM culture compared to oleate (0.7 mM) culture and control) was “SCD was downregulated” and the Bcl-2 expression [3] was “downregulated Bcl-2 expression”.
